Measured values as given in the supplement of paper PMC10849652.
The other results are listed elsewhere or left out.

The chains behind the UniProt entries cited, without tags or fusion partners. Where a name states a change or a piece, a line headed by the entry shows the natural chain unless it says otherwise.
UniProt Q13232: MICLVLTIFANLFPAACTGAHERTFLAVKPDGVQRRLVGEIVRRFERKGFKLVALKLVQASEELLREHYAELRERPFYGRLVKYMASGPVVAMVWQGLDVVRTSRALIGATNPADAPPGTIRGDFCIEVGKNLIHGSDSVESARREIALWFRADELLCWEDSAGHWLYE
UniProt Q9Y697: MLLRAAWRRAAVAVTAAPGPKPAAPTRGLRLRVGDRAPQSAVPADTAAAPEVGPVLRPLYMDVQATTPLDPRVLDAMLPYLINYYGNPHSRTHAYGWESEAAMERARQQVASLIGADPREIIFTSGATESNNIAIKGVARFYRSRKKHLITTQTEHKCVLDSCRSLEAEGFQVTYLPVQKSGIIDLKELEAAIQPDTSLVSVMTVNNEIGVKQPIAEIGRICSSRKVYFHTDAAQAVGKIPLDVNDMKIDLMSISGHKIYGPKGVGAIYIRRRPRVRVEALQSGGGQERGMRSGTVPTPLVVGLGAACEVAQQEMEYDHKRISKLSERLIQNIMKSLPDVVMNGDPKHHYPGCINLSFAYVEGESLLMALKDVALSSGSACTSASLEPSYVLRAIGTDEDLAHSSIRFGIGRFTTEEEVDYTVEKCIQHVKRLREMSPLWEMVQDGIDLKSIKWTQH
UniProt Q9UMY1: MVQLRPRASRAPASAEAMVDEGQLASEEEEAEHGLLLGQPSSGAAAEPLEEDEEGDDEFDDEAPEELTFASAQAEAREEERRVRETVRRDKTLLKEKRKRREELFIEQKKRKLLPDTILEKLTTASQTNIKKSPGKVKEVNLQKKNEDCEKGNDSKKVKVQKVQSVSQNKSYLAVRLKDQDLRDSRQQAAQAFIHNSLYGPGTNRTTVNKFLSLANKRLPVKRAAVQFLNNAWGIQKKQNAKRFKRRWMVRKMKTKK
UniProt O60551: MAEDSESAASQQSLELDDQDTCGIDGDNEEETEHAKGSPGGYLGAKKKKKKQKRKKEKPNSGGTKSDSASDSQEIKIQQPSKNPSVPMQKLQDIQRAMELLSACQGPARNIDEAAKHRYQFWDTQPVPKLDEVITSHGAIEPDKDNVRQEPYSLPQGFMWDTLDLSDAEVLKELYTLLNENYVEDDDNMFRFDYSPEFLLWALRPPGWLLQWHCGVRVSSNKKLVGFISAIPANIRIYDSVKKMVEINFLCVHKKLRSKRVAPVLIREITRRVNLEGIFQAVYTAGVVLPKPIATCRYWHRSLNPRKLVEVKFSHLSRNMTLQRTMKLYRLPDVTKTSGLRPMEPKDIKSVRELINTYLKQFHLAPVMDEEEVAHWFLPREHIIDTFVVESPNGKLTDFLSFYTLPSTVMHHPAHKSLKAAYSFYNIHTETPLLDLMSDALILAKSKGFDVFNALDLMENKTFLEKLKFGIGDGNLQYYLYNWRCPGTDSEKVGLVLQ
UniProt P46459: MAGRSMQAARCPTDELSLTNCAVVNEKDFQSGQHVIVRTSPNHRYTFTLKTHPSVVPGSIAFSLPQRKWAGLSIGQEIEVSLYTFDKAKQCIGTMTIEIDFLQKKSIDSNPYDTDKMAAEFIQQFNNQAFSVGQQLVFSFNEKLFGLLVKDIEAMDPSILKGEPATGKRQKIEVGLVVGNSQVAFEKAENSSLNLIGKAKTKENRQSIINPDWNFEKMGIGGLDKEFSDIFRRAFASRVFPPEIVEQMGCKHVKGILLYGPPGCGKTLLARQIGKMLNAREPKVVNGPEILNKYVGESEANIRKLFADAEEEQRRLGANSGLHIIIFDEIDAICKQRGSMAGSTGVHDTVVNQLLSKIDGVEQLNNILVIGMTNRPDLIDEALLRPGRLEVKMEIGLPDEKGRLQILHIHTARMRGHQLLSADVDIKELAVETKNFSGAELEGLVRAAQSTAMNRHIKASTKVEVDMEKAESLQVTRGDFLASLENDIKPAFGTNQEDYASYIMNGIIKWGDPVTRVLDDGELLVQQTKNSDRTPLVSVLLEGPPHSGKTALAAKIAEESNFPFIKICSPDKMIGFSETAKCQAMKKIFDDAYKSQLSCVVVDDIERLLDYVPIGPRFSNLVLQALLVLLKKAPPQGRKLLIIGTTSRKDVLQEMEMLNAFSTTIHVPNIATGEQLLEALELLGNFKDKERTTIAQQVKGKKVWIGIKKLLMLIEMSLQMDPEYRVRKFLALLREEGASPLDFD
UniProt P15531, whole entry, looked up: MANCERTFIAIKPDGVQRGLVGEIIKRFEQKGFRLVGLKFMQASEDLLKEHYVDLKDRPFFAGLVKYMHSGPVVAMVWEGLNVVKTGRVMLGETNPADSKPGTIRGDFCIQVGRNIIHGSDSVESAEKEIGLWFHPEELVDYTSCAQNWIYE
UniProt Q9H3P2, whole entry, looked up: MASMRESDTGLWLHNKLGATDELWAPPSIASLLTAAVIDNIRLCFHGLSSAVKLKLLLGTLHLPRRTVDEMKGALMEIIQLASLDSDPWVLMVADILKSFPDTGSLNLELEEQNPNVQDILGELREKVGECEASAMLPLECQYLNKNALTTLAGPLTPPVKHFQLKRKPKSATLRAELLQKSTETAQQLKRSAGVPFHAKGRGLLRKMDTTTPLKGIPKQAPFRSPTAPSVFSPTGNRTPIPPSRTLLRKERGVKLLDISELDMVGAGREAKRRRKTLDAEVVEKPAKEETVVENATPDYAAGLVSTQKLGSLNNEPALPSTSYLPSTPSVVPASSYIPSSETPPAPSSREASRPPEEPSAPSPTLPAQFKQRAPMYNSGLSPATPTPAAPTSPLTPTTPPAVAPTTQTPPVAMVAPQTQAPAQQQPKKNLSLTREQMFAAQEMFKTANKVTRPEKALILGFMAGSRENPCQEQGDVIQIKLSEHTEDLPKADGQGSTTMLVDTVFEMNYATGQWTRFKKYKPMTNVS
UniProt Q8NCF5: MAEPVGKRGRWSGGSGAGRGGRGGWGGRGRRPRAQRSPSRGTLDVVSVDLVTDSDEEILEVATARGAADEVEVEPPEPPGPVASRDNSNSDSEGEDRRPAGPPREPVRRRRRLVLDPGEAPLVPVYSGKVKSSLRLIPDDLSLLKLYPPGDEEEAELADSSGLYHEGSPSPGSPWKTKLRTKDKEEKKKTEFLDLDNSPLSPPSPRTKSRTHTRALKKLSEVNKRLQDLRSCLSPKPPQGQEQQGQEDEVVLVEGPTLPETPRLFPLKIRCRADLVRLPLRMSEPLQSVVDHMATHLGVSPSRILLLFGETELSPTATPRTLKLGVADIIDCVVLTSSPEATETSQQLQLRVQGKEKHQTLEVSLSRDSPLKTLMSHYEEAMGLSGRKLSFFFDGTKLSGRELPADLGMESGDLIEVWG
UniProt O00567: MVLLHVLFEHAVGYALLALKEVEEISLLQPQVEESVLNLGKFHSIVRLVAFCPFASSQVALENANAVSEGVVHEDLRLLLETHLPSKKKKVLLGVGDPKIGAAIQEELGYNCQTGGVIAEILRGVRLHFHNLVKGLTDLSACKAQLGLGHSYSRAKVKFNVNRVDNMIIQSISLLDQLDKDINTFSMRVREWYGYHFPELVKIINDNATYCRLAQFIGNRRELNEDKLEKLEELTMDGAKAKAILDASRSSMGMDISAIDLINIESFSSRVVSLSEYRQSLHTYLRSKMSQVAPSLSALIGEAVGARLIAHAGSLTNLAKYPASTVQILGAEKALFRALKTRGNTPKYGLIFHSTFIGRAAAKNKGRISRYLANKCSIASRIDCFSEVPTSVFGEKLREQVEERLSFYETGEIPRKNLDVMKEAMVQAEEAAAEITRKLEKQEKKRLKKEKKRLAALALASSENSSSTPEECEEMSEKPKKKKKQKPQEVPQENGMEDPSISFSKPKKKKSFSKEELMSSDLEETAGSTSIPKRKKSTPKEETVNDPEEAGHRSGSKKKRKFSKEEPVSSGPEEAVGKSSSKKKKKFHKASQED
UniProt Q9HBL8: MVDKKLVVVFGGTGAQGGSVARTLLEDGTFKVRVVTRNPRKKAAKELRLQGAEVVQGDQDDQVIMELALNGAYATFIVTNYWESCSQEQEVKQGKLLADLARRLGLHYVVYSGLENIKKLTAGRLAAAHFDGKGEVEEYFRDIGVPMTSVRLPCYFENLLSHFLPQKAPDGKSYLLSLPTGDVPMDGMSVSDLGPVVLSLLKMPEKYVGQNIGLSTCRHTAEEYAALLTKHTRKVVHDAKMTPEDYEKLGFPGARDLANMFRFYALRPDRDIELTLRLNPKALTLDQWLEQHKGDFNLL
UniProt Q15155: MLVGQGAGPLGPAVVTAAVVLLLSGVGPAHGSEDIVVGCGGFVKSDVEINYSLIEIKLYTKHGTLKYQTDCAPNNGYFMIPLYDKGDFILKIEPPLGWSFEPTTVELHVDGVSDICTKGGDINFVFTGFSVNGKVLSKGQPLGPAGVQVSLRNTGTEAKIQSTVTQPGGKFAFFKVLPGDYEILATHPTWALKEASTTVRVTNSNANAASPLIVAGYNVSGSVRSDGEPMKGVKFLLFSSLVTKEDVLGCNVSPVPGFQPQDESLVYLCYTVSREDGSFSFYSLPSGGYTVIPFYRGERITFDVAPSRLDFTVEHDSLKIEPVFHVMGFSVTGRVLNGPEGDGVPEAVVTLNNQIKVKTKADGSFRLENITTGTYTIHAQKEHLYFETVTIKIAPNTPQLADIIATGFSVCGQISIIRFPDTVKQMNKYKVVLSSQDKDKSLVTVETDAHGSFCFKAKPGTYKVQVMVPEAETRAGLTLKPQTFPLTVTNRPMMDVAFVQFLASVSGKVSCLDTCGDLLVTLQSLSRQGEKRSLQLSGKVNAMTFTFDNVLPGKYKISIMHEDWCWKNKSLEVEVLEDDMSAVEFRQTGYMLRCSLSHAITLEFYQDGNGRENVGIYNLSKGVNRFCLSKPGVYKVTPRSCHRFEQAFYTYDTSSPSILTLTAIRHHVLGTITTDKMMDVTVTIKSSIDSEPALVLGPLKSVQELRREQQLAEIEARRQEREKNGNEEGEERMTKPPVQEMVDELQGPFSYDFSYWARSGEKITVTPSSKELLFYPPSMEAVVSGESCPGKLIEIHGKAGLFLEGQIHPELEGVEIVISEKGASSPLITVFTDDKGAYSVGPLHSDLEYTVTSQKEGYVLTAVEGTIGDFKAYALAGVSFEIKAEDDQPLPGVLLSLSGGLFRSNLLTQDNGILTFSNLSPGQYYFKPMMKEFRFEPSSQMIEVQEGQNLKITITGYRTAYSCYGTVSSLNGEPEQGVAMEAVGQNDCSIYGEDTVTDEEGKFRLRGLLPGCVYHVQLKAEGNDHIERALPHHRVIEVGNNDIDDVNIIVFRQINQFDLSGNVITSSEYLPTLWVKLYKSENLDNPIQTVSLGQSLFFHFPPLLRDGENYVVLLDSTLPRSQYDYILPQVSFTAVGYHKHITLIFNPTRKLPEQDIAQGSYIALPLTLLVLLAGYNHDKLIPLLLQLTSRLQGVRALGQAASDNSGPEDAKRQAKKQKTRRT
UniProt Q8IXM6: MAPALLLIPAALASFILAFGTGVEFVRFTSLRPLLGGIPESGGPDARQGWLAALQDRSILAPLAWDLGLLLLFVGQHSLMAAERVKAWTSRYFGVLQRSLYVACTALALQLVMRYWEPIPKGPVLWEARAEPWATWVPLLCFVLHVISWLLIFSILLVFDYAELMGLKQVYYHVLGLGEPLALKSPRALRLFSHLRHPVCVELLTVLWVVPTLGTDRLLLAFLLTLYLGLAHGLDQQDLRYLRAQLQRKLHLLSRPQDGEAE
UniProt P51956: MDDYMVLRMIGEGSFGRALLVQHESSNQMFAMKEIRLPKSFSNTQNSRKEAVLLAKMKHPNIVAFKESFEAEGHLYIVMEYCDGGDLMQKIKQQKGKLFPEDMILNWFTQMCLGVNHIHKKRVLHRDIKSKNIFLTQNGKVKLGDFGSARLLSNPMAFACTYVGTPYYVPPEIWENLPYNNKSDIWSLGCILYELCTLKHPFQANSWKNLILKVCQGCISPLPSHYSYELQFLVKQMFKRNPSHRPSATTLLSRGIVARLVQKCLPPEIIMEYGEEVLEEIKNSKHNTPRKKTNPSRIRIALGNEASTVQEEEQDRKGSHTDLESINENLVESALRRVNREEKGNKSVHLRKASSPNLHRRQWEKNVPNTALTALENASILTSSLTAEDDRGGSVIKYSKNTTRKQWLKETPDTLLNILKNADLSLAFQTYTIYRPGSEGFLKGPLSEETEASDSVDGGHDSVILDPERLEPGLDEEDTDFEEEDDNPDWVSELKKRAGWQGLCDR
UniProt Q9UGY1: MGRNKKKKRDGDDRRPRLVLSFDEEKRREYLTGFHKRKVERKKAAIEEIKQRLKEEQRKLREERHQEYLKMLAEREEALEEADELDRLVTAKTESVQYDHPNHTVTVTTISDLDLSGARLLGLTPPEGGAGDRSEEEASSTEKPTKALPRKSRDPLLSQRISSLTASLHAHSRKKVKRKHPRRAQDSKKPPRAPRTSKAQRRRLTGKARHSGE

Legend:
Test in all cases: log2 fold change, soluble protein after heating vs DMSO (PISA); higher = thermal stabilisation; K562 cells, 10 uM, 30 min; active = over 0.2 and 3.5 SD of the protein, either way, in both replicates (recomputed)
[1] = compound: CC1=C(C=C(C=C1)NC(=O)C2=CC(=CC=C2)C(C)(C)C#N)NC3=CC4=C(C=C3)N=CN(C4=O)C
How it was run: (§1)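 K562 cells at 2×10^6 cells/mL were given 10 μM compound for 30 min. Aliquots then went through 3 min of heating across 48°C-58°C, were pooled, and were extracted in PBS with 0.5% NP-40 at 4°C, and the supernatant after 21,000xg for 90 min was quantified by TMTpro 16plex LC-MS/MS with channel sums equalised. Thermal stability relative to control samples, from duplicates, is given as log2 fold change.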

[2] = compound: CC1=C(C=C(C=C1)NC(=O)C2=CC(=CC=C2)N(C)C)NC(=O)C3=CC=C(C=C3)O
How it was run: as §1

[3] = compound: CC1=CC=C(C=C1)SC2=C3C=C(SC3=CN=C2)C(=O)N
How it was run: as §1

[4] = compound: CC1=NC(=CC=C1)C2=C(N=C(N2)C(C)(C)C)C3=CC4=NC=CN=C4C=C3
How it was run: as §1

[5] = compound: CCCCN(Cc1ccc(C(=O)NO)cc1)C(=O)Nc1ccccc1 [Nexturastat A]
How it was run: as §1

[6] = compound: CCCS(=O)(=O)Nc1ccc(F)c(C(=O)c2c[nH]c3ncc(-c4ccc(Cl)cc4)cc23)c1F [vemurafenib]
How it was run: as §1

[7] = compound: CCCS(=O)(=O)Nc1ccc(F)c(C(=O)c2c[nH]c3ncc(Cl)cc23)c1F
How it was run: as §1

[8] = compound: CCCc1cc(C)[nH]c(=O)c1CNC(=O)c1cc(-c2ccnc(N3CCN(C)CC3)c2)cc2c1cnn2C(C)C
How it was run: as §1

[9] = compound: CCN(CC)Cc1ccc2cc(COC(=O)Nc3ccc(C(=O)NO)cc3)ccc2c1 [givinostat]
How it was run: as §1

[10] = compound: CCN(CCCOc1ccc2c(Nc3cc(CC(=O)Nc4cccc(F)c4)[nH]n3)ncnc2c1)CCOP(=O)(O)O [barasertib]
How it was run: as §1

[11] = compound: CC[C@@H]1C(=O)N(C)c2cnc(Nc3ccc(C(=O)NC4CCN(C)CC4)cc3OC)nc2N1C1CCCC1
How it was run: as §1

[12] = compound: CC[C@@H]1C(=O)N(C)c2cnc(Nc3ccc(C(=O)N[C@H]4CC[C@H](N5CCN(CC6CC6)CC5)CC4)cc3OC)nc2N1C(C)C [volasertib]
How it was run: as §1

[13] = compound: CC[C@H](C)N1C=C(C2=C(C=C(C=C21)C3=CN=C(C=C3)N4CCNCC4)C(=O)NCC5=C(C=C(NC5=O)C)C)C
How it was run: as §1

[14] = compound: CC[C@H](C)[C@@H](C(=O)N[C@@H]([C@@H](C)O)C(=O)N[C@@H](CC(C)C)C(=O)[C@]1(CO1)C)NC(=O)[C@H]([C@@H](C)CC)N(C)C(=O)C [epoxomicin]
How it was run: as §1

[15] = compound: CCn1c(C(=O)N(C2CC2)C2CC2)cc2c3c(ncn3C)c(Nc3cc(C)n(C)n3)nc21
How it was run: as §1

[16] = compound: CCn1cc(-c2ccnc3[nH]c(-c4cccc(CN(C)C)c4)cc23)c(-c2ccc(NC(=O)N(C)C)cc2)n1
How it was run: as §1

[17] = compound: CN(C)CC(=O)Nc1ccc2[nH]c(=O)c3ccccc3c2c1
How it was run: as §1

[18] = compound: CN(CCOC1=CC=C(C=C1)C[C@H]2C(=O)NC(=O)S2)C3=CC=CC=N3 (racemic) [rosiglitazone]
How it was run: as §1

[19] = compound: CN1C2=C(C3=C1C(=O)N(N=C3)CC4=CC(=CC=C4)N)SC(=C2)S(=O)C
How it was run: as §1

[20] = compound: CN1CCC(CNc2ccc3ncc(-c4cccc(OC(F)(F)F)c4)n3n2)CC1
How it was run: as §1

Measured: log2 fold change

NME3 (UniProt Q13232)
inactive: [1] -0.051 | [2] 0.026 | [3] 0.014 | [4] 0.012 | [5] -0.058 | [6] -0.014 | [7] -0.025 | [8] -0.019 | [9] -0.011 | [10] -0.031 | [11] 0.043 | [12] 0.071 | [13] -0.063 | [14] 0.043 | [15] 0.012 | [16] -0.019 | [17] -0.004 | [18] 0.007 | [19] -0.04 | [20] 0.048

NFS1 (UniProt Q9Y697)
inactive: [1] -0.016 | [2] -0.024 | [3] 0.009 | [4] 0.022 | [5] -0.053 | [6] 0.027 | [7] 0.031 | [8] -0.032 | [9] -0.005 | [10] 0.014 | [11] -0.004 | [12] -0.067 | [13] 0.023 | [14] 0 | [15] -0.022 | [16] -0.045 | [17] 0.009 | [18] 0.022 | [19] -0.113 | [20] 0.035

NOL7 (UniProt Q9UMY1)
inactive: [1] -0.06 | [2] -0.055 | [3] -0.048 | [4] -0.193 | [5] 0.214 | [6] -0.14 | [7] -0.121 | [8] 0.088 | [9] 0.031 | [10] -0.092 | [11] 0.226 | [12] 0.417 | [13] -0.086 | [14] -0.338 | [16] 0.232 | [17] -0.123 | [19] 0.316 | [20] 0.237

NMT2 (UniProt O60551)
inactive: [1] 0.006 | [2] 0.018 | [3] 0.237 | [4] 0.024 | [5] -0.037 | [6] -0.034 | [7] 0.031 | [8] 0.02 | [9] -0.233 | [10] 0 | [11] 0.013 | [12] -0.177 | [13] 0.039 | [14] 0.01 | [16] -0.098 | [17] -0.013 | [19] 0.002 | [20] -0.208

NPC1 (UniProt O15118)
inactive: [1] -0.018 | [2] 0.01 | [3] 0.006 | [4] 0.066 | [5] -0.041 | [6] 0.007 | [7] -0.019 | [8] -0.028 | [9] -0.051 | [10] 0.02 | [11] -0.016 | [12] -0.072 | [13] -0.031 | [14] -0.02 | [16] 0.005 | [17] -0.029 | [19] 0.004 | [20] 0.012

NSF (UniProt P46459)
inactive: [1] -0.002 | [2] -0.026 | [3] 0.006 | [4] 0.039 | [5] -0.054 | [6] 0.038 | [7] 0.017 | [8] 0.016 | [9] 0.014 | [10] 0.029 | [11] -0.058 | [12] -0.067 | [13] 0.038 | [14] 0.02 | [15] -0.028 | [16] -0.054 | [17] 0.021 | [18] 0.044 | [19] -0.006 | [20] -0.033

NME1 isoform 2 (UniProt P15531)
inactive: [1] -0.054 | [2] 0.047 | [3] 0.029 | [4] -0.006 | [5] -0.067 | [6] -0.003 | [7] -0.045 | [8] -0.092 | [9] -0.07 | [10] -0.108 | [11] 0.061 | [12] 0.046 | [13] 0.03 | [14] -0.01 | [16] -0.134 | [17] -0.028 | [19] -0.184 | [20] -0.039

NELFA (UniProt Q9H3P2)
inactive: [1] -0.02 | [2] -0.124 | [3] 0.011 | [4] 0.092 | [5] -0.104 | [6] 0.06 | [7] 0.097 | [8] 0.024 | [9] 0.079 | [10] 0.212 | [11] -0.4 | [13] 0.341 | [14] 0.053 | [16] -0.139 | [17] 0.16 | [19] -0.051 | [20] 0.006
active: [12] -0.868

NFATC2IP (UniProt Q8NCF5)
inactive: [1] -0.029 | [2] -0.026 | [3] 0.028 | [4] 0.013 | [5] 0.007 | [6] -0.01 | [7] 0.014 | [8] 0.015 | [9] 0.088 | [10] 0.124 | [11] -0.09 | [13] 0.069 | [14] -0.052 | [16] 0.038 | [17] 0.048 | [19] -0.008 | [20] -0.103
active: [12] -0.278

NOP56 (UniProt O00567)
inactive: [1] -0.024 | [2] -0.001 | [3] -0.149 | [4] -0.136 | [5] 0.127 | [6] -0.018 | [7] -0.065 | [8] 0.003 | [9] 0.096 | [10] -0.076 | [11] 0.141 | [12] 0.238 | [13] 0.034 | [14] -0.44 | [16] 0.066 | [17] -0.208 | [19] 0.299 | [20] 0.168

NFKB1 isoform 2 (UniProt P19838)
inactive: [1] -0.074 | [2] 0.025 | [3] -0.132 | [4] 0.002 | [5] 0.086 | [6] 0.051 | [7] 0.047 | [8] 0.055 | [9] 0.066 | [10] -0.032 | [11] 0.003 | [12] -0.158 | [13] 0.046 | [14] -0.187 | [15] 0.014 | [16] -0.124 | [17] 0.033 | [18] 0.058 | [19] 0.155 | [20] -0.017

NMRAL1 (UniProt Q9HBL8)
active: [1] 1.01
inactive: [2] 0.029 | [3] 0.025 | [4] -0.151 | [5] -0.138 | [6] 0.003 | [7] -0.074 | [8] 0.234 | [9] 0.027 | [10] -0.021 | [11] 0.27 | [12] 0.294 | [13] 0.105 | [14] 0.035 | [16] 0.055 | [17] 0.122 | [19] 0.059 | [20] 0.526

NOMO1 (UniProt Q15155)
inactive: [1] 0.114 | [2] -0.003 | [3] -0.023 | [4] 0.041 | [5] 0.029 | [6] 0.186 | [7] -0.179 | [9] 0.159 | [10] -0.158 | [11] -0.054 | [12] -0.166 | [13] 0.002 | [14] 0.053 | [15] -0.099 | [16] 0.024 | [17] -0.088 | [18] -0.006 | [19] 0.182 | [20] 0.001

NOB1 (UniProt Q9ULX3)
inactive: [1] 0.039 | [2] 0.047 | [3] 0.012 | [4] 0.027 | [5] 0.034 | [6] 0.055 | [7] 0.031 | [8] 0.182 | [9] 0.055 | [10] 0.041 | [11] -0.053 | [12] -0.026 | [13] 0.093 | [14] -0.02 | [16] 0.026 | [17] -0.011 | [19] 0.04 | [20] -0.049

NRM (UniProt Q8IXM6)
inactive: [1] -0.021 | [3] -0.002 | [5] -0.091 | [6] 0.088 | [7] 0.063 | [8] -0.03 | [9] -0.015 | [10] -0.005 | [11] 0.019 | [12] 0.018 | [13] -0.05 | [14] 0 | [15] -0.029 | [16] -0.022 | [17] 0.108 | [18] 0.017 | [20] -0.014

Two successive entries from above:
NMRAL1 (UniProt Q9HBL8)
active: [1] 1.01
inactive: [2] 0.029 | [3] 0.025 | [4] -0.151 | [5] -0.138 | [6] 0.003 | [7] -0.074 | [8] 0.234 | [9] 0.027 | [10] -0.021 | [11] 0.27 | [12] 0.294 | [13] 0.105 | [14] 0.035 | [16] 0.055 | [17] 0.122 | [19] 0.059 | [20] 0.526

NOMO1 (UniProt Q15155)
inactive: [1] 0.114 | [2] -0.003 | [3] -0.023 | [4] 0.041 | [5] 0.029 | [6] 0.186 | [7] -0.179 | [9] 0.159 | [10] -0.158 | [11] -0.054 | [12] -0.166 | [13] 0.002 | [14] 0.053 | [15] -0.099 | [16] 0.024 | [17] -0.088 | [18] -0.006 | [19] 0.182 | [20] 0.001

The results go on:

NEK3 (UniProt P51956)
active: [20] -0.465
inactive: [1] 0.058 | [2] -0.055 | [3] 0.052 | [4] -0.108 | [5] -0.033 | [6] 0.089 | [7] -0.123 | [8] -0.063 | [9] -0.013 | [11] -0.046 | [12] -0.162 | [13] 0.167 | [14] 0.067 | [16] -0.125 | [17] 0.014 | [19] 0.002

NOL12 (UniProt Q9UGY1)
inactive: [1] -0.025 | [2] -0.019 | [3] -0.023 | [4] -0.193 | [5] 0.348 | [6] -0.087 | [7] -0.064 | [8] 0.149 | [9] -0.031 | [10] -0.134 | [12] 0.398 | [13] 0.025 | [14] -0.355 | [15] -0.051 | [16] 0.277 | [17] -0.08 | [18] -0.18 | [19] 0.317 | [20] 0.462
